B1: Wnt7a-HA: HA epitope tagged Wnt7a in conditioned medium produced in COS-1 cells (protein, UniProt O00755 32-349, looked up)
Protein Wnt-7a: LGASIICNKIPGLAPRQRAICQSRPDAIIVIGEGSQMGLDECQFQFRNGRWNCSALGERTVFGKELKVGSREAAFTYAIIAAGVAHAITAACTQGNLSDCGCDKEKQGQYHRDEGWKWGGCSADIRYGIGFAKVFVDAREIKQNARTLMNLHNNEAGRKILEENMKLECKCHGVSGSCTTKTCWTTLPQFRELGYVLKDKYNEAVHVEPVRASRNKRPTFLKIKKPLSYRKPMDTDLVYIEKSPNYCEEDPVTGSVGTQGRACNKTAPQASGCDLMCCGRGYNTHQYARVWQCNCKFHWCCYVKCNTCSERTEMYTCK
modifications: HA tag
B2: Wnt7a: non-canonical Wnt polypeptide (R&D Systems) used to treat or load myogenic cells (protein, UniProt O00755 32-349, looked up)
Protein Wnt-7a: B1 Protein Wnt-7a

System: primary myoblasts
Assay: Endocytosis and intracellular persistence of Wnt7a in myoblasts
Format: cell-based
Conditions: after 3 h incubation and washing; primary myoblasts and C2C12 cells

| Molecule | time endocytosed Wnt7a is detectable in intracellular structures |
| --- | --- |
| B1 | ≥ 72 h |
| B2 | > 72 h |
